Measurements: patent US11535597B2, “Photoreactive ligands and uses thereof” (The Scripps Research Institute, priority 2017, dated 2022)

Tested on: proteins in HEK293T cells
Assay: MS-based mapping of FFF probe-modified peptides (isoTOP, sites of labeling)
Assay type: binding, human
Experimental: Preparation and analysis was adapted from methods previously reported. In brief, for global mapping of fragment probe-modified peptides, separate 10 cm dishes of cells were treated with probes (200-250 μM) in 3.0 mL of DMEM (serum-free) and (if applicable) competitor ligands, proteomes harvested and subjected to click chemistry conditions with either light or heavy isotopically labeled biotin-TEV-azide (10 μL of 5 mM stocks in DMSO, final concentration=100 μM), TCEP, ligand and CuSO4 as detailed above. The samples were allowed to react for 1 h at which point the samples were centrifuged (16,000 g, 5 min, 4° C.). The resulting pellets were sonicated in ice-cold methanol (500 μL) and the resuspended light- and heavy-labeled samples were then combined and centrifuged (16,000 g, 5 min, 4° C.). The pellets were then solubilized in PBS containing 1.2% SDS (1 mL) with sonication and heating (5 min, 95° C.). Samples were transferred to falcon tubes containing DPBS (5 mL), to which a 100 μL of streptavidin-agarose beads slurry was added. After incubation, the beads (3 hr) were pelleted by centrifugation (1,400 g, 3 min) and were washed (2×10 mL PBS and 2×10 mL water). The beads were transferred to eppendorf tubes with 1 mL DPBS, centrifuged (1,400 g, 3 min), and resuspended in PBS containing 6 M urea. To this was added 10 mM DTT (25 μL of a 200 mM stock in water) and the beads were incubated at 65° C. for 15 mins. 20 mM iodoacetamide (25 μL of a 400 mM stock in water) was then added and allowed to react at 37° C. for 30 mins with shaking. The bead mixture was diluted with 900 μL PBS, pelleted by centrifugation (1,400 g, 3 min), and resuspended in 200 μL 2M urea (DPBS) containing trypsin and CaCl2 as described above. The beads were separated from the digest by centrifugation (1,000 g, 1 min), washed (2×1 mL PBS and 2×1 mL water) and then transferred to fresh eppendorfs with 1 mL water. The washed beads were washed once further in 150 μL TEV buffer (50 mM Tris, pH 8, 0.5 mM EDTA, 1 mM DTT) by centrifugation (1,400 g, 3 min) and the resuspended in 150 μL TEV buffer. 5 μL TEV protease (80 μM) was added and the reactions were rotated overnight at 29° C. The TEV digest was separated from the beads by centrifugation (1,400 g, 3 min) and the beads were washed once with water (100 μL). The samples were then acidified to a final concentration of 5% (v/v) formic acid and stored at −80° C. prior to analysis.
The resulting probe-modified peptides were collected for MS analysis, which was performed as described above with differences in the salt bumps applied in the chromatographic gradients which in this case were 0%, 30%, 60%, 90% and 100% NH4OAc (500 μM). The protein identification searches of the MS data were performed with the following changes applied to identify the peptides modified with the corresponding fragment probe and the cleaved TEV tag. All amino acids were considered as possible residues for modification. To facilitate the computational searches, sets of up to 3 amino acids were searched using ProLuCID and filtered with DTASelect as described above. […] The isoTOP ratios for probe labeled peptides were quantified using the in-house software CIMAGE.
For each protein in the site-of-labeling dataset, the UniProtKB accession number was used to map and collect relevant structures from the RCSB Protein Data Bank (PDB) fulfilling the following criteria: structures determined by X-ray crystallography, wild-type protein, Homo sapiens as the sole source organism. […] Fpocket 2.0 was used to detect potential binding pockets for the resultant structures with all parameters set at recommended default. Pockets with volume less than 500 Å^3 were removed from output prior to further analysis. Residues surrounding fpocket predicted binding pockets for each protein were collected to determine the number of residues overlapping with isoTOP peptides.

[1] = residues of HSD17B4 Peroxisomal multifunctional enzyme type 2 (P51659) labeled by probe
[2] = residues of HSD17B10 3-hydroxyacyl-CoA dehydrogenase type-2 (Q99714) labeled by probe

C#CCCC1(CCC(=O)Nc2ccc(C3CCNCC3)cc2)N=N1 [probe 9, 3-(3-(But-3-yn-1-yl)-3H-diazirin-3-yl)-N-(4-(piperidin-4-yl)phenyl)propanamide]
Labeled Peptide (residues of HSP90B1 Endoplasmin (P14625) labeled by probe): 117-135
Labeled Peptide (residues of IFI30 Gamma-interferon-inducible lysosomal thiol reductase (P13284) labeled by probe): 129-157
Labeled Peptide (residues of LDHA L-lactate dehydrogenase A chain (P00338) labeled by probe): 43-57

C#CCCC1(CCC(=O)N2CCCCC2Cc2ccccc2)N=N1 (stereo not shown) [probe 13, 1-(2-Benzylpiperidin-1-yl)-3-(3-(but-3-yn-1-yl)-3H-diazirin-3-yl)propan-1-one]
Labeled Peptide (residues of HSP90AA1 Heat shock protein HSP 90-alpha (P07900) labeled by probe): 368-386 and 300-314 and 514-534
Labeled Peptide (residues of ILVBL Acetolactate synthase-like protein (AIL0T0) labeled by probe): 557-577
Labeled Peptide (residues of IMPDH2 Inosine-5-monophosphate dehydrogenase 2 (P12268) labeled by probe): 110-124
Labeled Peptide (residues of KPNA2 Importin subunit alpha-2 (P52292) labeled by probe): 301-315
Labeled Peptide (residues of LARS Leucine--tRNA ligase, cytoplasmic (Q9P2J5) labeled by probe): 1007-1017

C#CCCC1(CCC(=O)Nc2ccc3oc(=O)ccc3c2)N=N1 [probe 3, 3-(3-(But-3-yn-1-yl)-3H-diazirin-3-yl)-N-(2-oxo-2H-chromen-6-yl)propanamide]
Labeled Peptide [1]: 169-183
Labeled Peptide [2]: 42672
Labeled Peptide (residues of HSPD1 60 kDA heat shock protein, mitochondrial (P10809) labeled by probe): 345-352

C#CCCC1(CCC(=O)NCc2ccc3sccc3c2)N=N1 [probe 4, N-(Benzo[b]thiophen-5-ylmethyl)-3-(3-(but-3-yn-1-yl)-3H-diazirin-3-yl)propanamide]
Labeled Peptide (residues of IDE Insulin-degrading enzyme (P14735) labeled by probe): 312-324
Labeled Peptide (residues of IPO4 Importin-4 (Q8TEX9) labeled by probe): 163-182
Labeled Peptide (residues of LDHB L-lactate dehydrogenase B chain (P07195) labeled by probe): 234-244

C#CCCC1(CCC(=O)NC2N=C(c3ccccc3)c3ccccc3NC2=O)N=N1 (stereo not shown) [probe 2, 3-(3-(But-3-yn-1-yl)-3H-diazirin-3-yl)-N-(2-oxo-5-phenyl-2,3-dihydro-1H-benzo[e][1,4]diazepin-3-yl)propanamide]
Labeled Peptide (residues of HNRNPL Heterogeneous nuclear ribonucleoprotein L (P14866) labeled by probe): 399-411
Labeled Peptide [2]: 42672

C#CCCC1(CCC(=O)NC23CC4CC(CC(C4)C2)C3)N=N1 [probe 14, N-((3s,5s,7s)-Adamantan-1-yl)-3-(3-(but-3-yn-1-yl)-3H-diazirin-3-yl)propanamide]
Labeled Peptide [1]: 385-403 and 622-633
Labeled Peptide (residues of IPO9 Importin-9 (Q96P70) labeled by probe): 49-74
Labeled Peptide (residues of IRS4 Insulin receptor substrate 4 (O14654) labeled by probe): 256-267

Several values for one entry are separate records, joined by “and”; a condition that tells them apart may be missing. Identical values can stand only once.
